The campaign covered roughly 330,000 compounds. About 7,700 (2.3%) were called active. Inconclusive results, whose numbers are uncertain, are shown with a selection of clear calls. The call rests on the fitted dose curve; in most records, active means well fitted inhibition curve with a large enough effect; inconclusive means small, poorly fitted or top-dose-only effect, or effect the other way; inactive means flat fitted curve, though single readings scatter. Where the call is inconclusive, the potency comes from a doubtful curve fit.
Assay: qHTS screen for small molecules that inhibit ELG1-dependent DNA repair in human embryonic kidney (HEK293T) cells expressing luciferase-tagged ELG1; further: nearly all actives have a fitted effect of over 55% in size
Details: HEK293T ELG1-luciferase reporter, luminescence, 16 h, DNA damage induced by 5-fluorouridine; series mostly up to 46.1 µM
Method in brief: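 Luminescence from the luciferase reporter, measured 30 min after ONE-Glo reagent at room temperature, was the read-out. Beforehand, 2,000 cells per well were exposed for 16 hr at 37 °C to 5-fluorouridine together with compound or vehicle.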
Potency means the concentration at half of the fitted maximal effect.

| SMILES | Potency |
| --- | --- |
| O=C(NNC(=O)c1cc2ccccc2[nH]1)OCc1ccccc1 | inconclusive: 18.3 µM [activator, partial curve, poor fit] |
| Cc1cc(C(=O)NNC(=O)c2ccc(Cl)cc2Cl)c(C)o1 | inconclusive: 10.3 µM [activator, single point] |
| CCOC(=O)c1nn(-c2ccc(C)cc2)c(=O)cc1OCC(=O)N1CCN(c2ccccc2)CC1 | inactive |
| COc1ccc2c(c1)CC/C2=N\NC(=O)c1ccccc1 | inconclusive: 13 µM [activator, partial curve] |
| COc1ccccc1-n1ccnc(SCC(=O)NC2CCCC2)c1=O | inconclusive: 29.1 µM [activator, partial curve, poor fit] |
| NNC(=O)c1nc(-c2ccccc2)cc(-c2ccccc2)n1 | inactive |
| N#CC1=C(N)NC(SCc2ccccc2)=C(C#N)C12CCCC2 | inconclusive: 20.6 µM [inhibitor, single point] |
| COc1ccc(N2CCN(C(c3nnnn3C3CCCC3)C(C)C)CC2)cc1 (stereo not given) | inconclusive: 25.9 µM [inhibitor, partial curve] |
| COc1ccc(CCNc2ncnc3c2[nH]c2cc(OC)c(OC)cc23)cc1OC | inconclusive: 20.6 µM [inhibitor, partial curve, poor fit] |
| Cc1cc(C)c[n+](CC(=O)c2cc3ccccc3oc2=O)c1 | inactive |
| CC(C)(C)c1cc(-c2nc(N)nc(N)n2)c(O)c(C(C)(C)C)c1 | inconclusive: 5.01 µM [inhibitor, single point] |
| CCn1c([N+](=O)[O-])nc2c1c(=O)[nH]c(=O)n2C | inconclusive: 29.1 µM [inhibitor, single point] |
| Cc1ccc(NC(=O)/C=C2\NC(=O)CS2)cc1 | inconclusive: 16.4 µM [activator, partial curve] |
| CCCc1nc2ccccc2c(C(=O)OC(C)C(=O)NCc2ccc3c(c2)OCO3)c1CC (stereo not given) | active: 20.6 µM |
| Oc1ccccc1C1=Nc2ncnn2C(c2ccccc2)C1 (stereo not given) | inconclusive: 20.6 µM [inhibitor, partial curve] |
| COc1ccc2c(c1)c(/C=N/Nc1nc3ccccc3[nH]1)c(C)n2C | inconclusive: 20.6 µM [inhibitor, single point] |
| COc1ccc(OC)c(S(=O)(=O)N/N=C\c2cn(CC(N)=O)c3ccccc23)c1 | inconclusive: 14.6 µM [inhibitor, partial curve, poor fit] |
| CC(=O)/C=C/c1ccc2ccccc2n1 | inactive |
| O=C(Nc1ccc(Nc2ccccc2)cc1)C(Cl)Cl | inactive |
| Cc1nc2cccc(C(=O)Oc3ccc([N+](=O)[O-])cc3)c2o1 | inactive |
| Cc1ccc(C)c(CN2C(=O)CSc3ccc(C(=O)N4CCCC4)cc32)c1 | inactive |
| CSc1ccccc1NC(=O)c1cc(-c2ccco2)on1 | inconclusive: 18.3 µM [activator, single point] |
| Cc1cnc(C(=O)Nc2ccc3c(c2)CCC3)cn1 | inconclusive: 1.64 µM [activator, full curve] |
| CNC(=O)c1[nH]cnc1C(=O)Nc1ccc(Cl)cc1 | inconclusive: 23.1 µM [activator, partial curve] |

Copied from the list.
Value for `NNC(=O)c1nc(-c2ccccc2)cc(-c2ccccc2)n1` under Potency: inactive
Value for `CC(=O)/C=C/c1ccc2ccccc2n1` under Potency: inactive
Value for `Cc1ccc(NC(=O)/C=C2\NC(=O)CS2)cc1` under Potency: inconclusive: 16.4 µM [activator, partial curve]

Additional structures.

| SMILES | Potency |
| --- | --- |
| Cc1ccc(N(C)C(=O)N2CCN(S(=O)(=O)c3c(C)cc(C)cc3C)CC2)cc1 | inconclusive: 29.1 µM [inhibitor, single point] |
| CC(=O)c1ccc(NC(=S)NCc2ccc(Cl)cc2Cl)cc1 | inconclusive: 18.3 µM [inhibitor, partial curve] |
| CC(=O)c1ccc(NCCC(=O)c2ccccc2)cc1 | inconclusive: 6.51 µM [activator, partial curve] |
| Cc1[nH]nc(SCC(=O)NC2CCCCC2)c1[N+](=O)[O-] | inconclusive: 16.4 µM [activator, partial curve] |
| C=CCNC(=O)c1ccccc1NC(=O)c1ccc(Cl)c(S(=O)(=O)Nc2cccc(C)c2C)c1 | inconclusive: 23.1 µM [inhibitor, single point] |
| CC1=CC(=O)C=C(C)C1=NOc1ccccc1[N+](=O)[O-] | inconclusive: 29.1 µM [activator, single point] |
| COc1ccccc1CN(C)C(=O)c1cccc(S(=O)(=O)N2CCc3ccccc3C2)c1 | inconclusive: 25.9 µM [inhibitor, single point] |
| COc1ccc(NC(=O)COC(=O)c2c3c(nc4ccccc24)CCCC3)cc1 | active: 16.4 µM |
| Cc1ccc(NC(=O)C(=O)NCc2ccc(/C=C(/C#N)C(=O)NCc3cccnc3)o2)cc1C | inactive |
| COc1ccc(NC(=O)C2CCC(CNc3c(N4CCC(C)CC4)c(=O)c3=O)CC2)cc1OC (stereo not given) | inconclusive: 8.2 µM [inhibitor, partial curve, poor fit] |
| N#Cc1c(F)cccc1N1CCN(Cc2ccc3c(c2)OCO3)CC1 | inconclusive: 29.1 µM [inhibitor, partial curve, poor fit] |
| Cc1ccc2c(c1)c1c(n2CC(O)Cn2nc(C)c(Br)c2C)C(=O)CCC1 (stereo not given) | inconclusive: 15.8 µM [inhibitor, single point] |
| CCOC(=O)c1c(NC(=O)CSc2nnc(CNc3ccc(F)cc3)o2)sc(C)c1C | inconclusive: 32.6 µM [inhibitor, partial curve, poor fit] |
| CS(=O)(=O)N1CCN(c2cnn(-c3ccccc3)c(=O)c2Cl)CC1 | inconclusive: 18.3 µM [inhibitor, single point] |
| O=C(c1cc(COc2ccc(F)c(F)c2)on1)N1CCN(C2CCCCC2)C(=O)C1 | inactive |
| S=C(NCCc1ccccc1)N1CCc2ccccc2C1 | inactive |
| Cc1cc2cc(CNC(=S)Nc3ccc(OC(F)(F)F)cc3)ccc2n1C | inactive |
| COc1ccc(-c2csc3ncnc(N4CCN(c5cccc(C)c5C)CC4)c23)cc1 | inconclusive: 16.4 µM [inhibitor, single point] |
| COc1ccc(NC(=O)Nc2ccc3c(c2)C(=O)N([C@@H](C)CO)C[C@@H](C)[C@@H](CN(C)S(=O)(=O)c2cn(C)cn2)O3)cc1 | inactive |
| CCCCc1ccc(S(=O)(=O)N2CCN(C(=O)c3ccco3)CC2)cc1 | inactive |
| C=C(C)CN(CC)C(=O)CCc1nnc(CCCc2ccccc2)o1 | inconclusive: 25.9 µM [activator, single point] |
| Cc1cc2nccc(-c3ccc(Cl)cc3Cl)n2n1 | inconclusive: 20.6 µM [activator, partial curve] |
| Cc1ccc(C2=NN=C(NC(=O)CSc3nncn3C)SC2)cc1 | inconclusive: 2.59 µM [activator, partial curve] |
| CCCCN1CCc2c([nH]c3ccccc23)C1=O | inconclusive: 6.51 µM [activator, single point] |

| SMILES | Potency |
| --- | --- |
| CCCC(=O)Nc1ccccc1NC(=O)c1ccc(OCC)c(OCC)c1 | inconclusive: 32.6 µM [inhibitor, partial curve, poor fit] |
| CCCc1nc2oc3cc(OC)ccc3c(=O)c2c(=O)n1Cc1ccco1 | inactive |
| CCOc1ccc(NC(=O)N2CCc3ccccc3C2)cc1 | inconclusive: 23.1 µM [activator, partial curve] |
| CCOc1ccc(S(=O)(=O)c2c(C(=O)c3ccc(C)cc3)cnc3cc4c(cc23)OCCO4)cc1 | inactive |
| CCn1c2ccccc2c2cc(NC(=O)c3ccc(=O)oc3)ccc21 | inactive |
| CCCCCC(=O)Nc1cccc(C2=NOC3(C2)C[C@@H](C(N)=O)N(C(=O)c2cc([N+](=O)[O-])cc([N+](=O)[O-])c2C)C3)c1 (stereo not given in full) | inconclusive: 18.3 µM [inhibitor, single point] |
| COc1ccc(C2=Nn3c(nnc3C3CCCCC3)SC2)cc1OC | inconclusive: 18.4 µM [inhibitor, single point] |
| Cc1nnc(NC(=O)CCn2cnc3ccccc3c2=O)s1 | inactive |
| COC(=O)[C@H](CCSC)NC(=O)Cn1cnc(C(=O)Nc2ccc(C)c(C)c2)n1 | inconclusive: 16.4 µM [activator, partial curve] |
| C=CCNC(=S)Nc1ccccc1-c1nnc2n1CCCCC2 | inactive |
| O=C(NC1CCN(Cc2ccccc2)CC1)c1cccc(S(=O)(=O)Nc2ccc(SC(F)F)cc2)c1 | inconclusive: 5.17 µM [inhibitor, partial curve] |
| CC(C)C(=O)Nc1ccc2nn(-c3ccccc3)nc2c1 | inconclusive: 0.92 µM [activator, partial curve] |
| O=C(CSc1ccccn1)N1CCN(c2ncc(C(F)(F)F)cc2Cl)CC1 | inconclusive: 29.1 µM [inhibitor, single point] |
| CC(C)[C@@H]1CC[C@@H](C)C[C@H]1OC(=O)C[n+]1cc(-c2ccc(Cl)cc2)n2c1CCCCC2 | active: 20.6 µM |
| O=[N+]([O-])c1cc([N+](=O)[O-])c(Oc2cncc(Cl)c2)cc1NN1CCCCC1 | inconclusive: 0.73 µM [activator, full curve, poor fit] |
| COc1cccc(-c2nc(CS(=O)(=O)CC(=O)Nc3c(C)cccc3C)c(C)o2)c1 | inactive |
| c1cnc(-c2nnc3n2CCCCC3)cn1 | inactive |
| CCn1cc(C(=O)N2CCCC(N3CCN(c4ccccc4C)CC3)C2)cn1 (stereo not given) | inactive |
| O=C(Nc1ccc(F)cc1F)Nc1ccc(F)cc1F | inactive |
| Fc1ccc(-c2nnc(Cc3nnc(-c4ccc(F)cc4)o3)o2)cc1 | inactive |
| Cc1cc(/C=N/n2c(COc3ccccc3C)nc3ccccc3c2=O)c(O)c([N+](=O)[O-])c1 | inactive |
| COc1ccc(/C=C/C(=O)NC(=S)N2CCN(c3ccccc3OC)CC2)cc1 | inconclusive: 9.2 µM [activator, partial curve] |

2 compounds picked at random from those above, as already listed:

| SMILES | Potency |
| --- | --- |
| Cc1cc(/C=N/n2c(COc3ccccc3C)nc3ccccc3c2=O)c(O)c([N+](=O)[O-])c1 | inactive |
| S=C(NCCc1ccccc1)N1CCc2ccccc2C1 | inactive |

Source: PubChem BioAssay AID504467 (National Center for Advancing Translational Sciences (NCATS), 2011)
